Results reported in PubChem BioAssay AID588590 (National Center for Advancing Translational Sciences (NCATS), 2011).
Screen size: about 390,000 compounds; about 4,000 (1%) were called active. Inconclusive results, whose numbers are uncertain, are shown with a selection of clear calls. Calls follow the shape of the dose curve; as a rule, active = well fitted inhibition curve with a large enough effect; inconclusive = small, poorly fitted or top-dose-only effect, or another doubt; inactive = no such curve, though single readings can be large or run the other way. Where the call is inconclusive, the potency comes from a doubtful curve fit.

By UniProt entry, the sequences of proteins in these tests, tags left out. Where a name states a change or a piece, a line headed by the entry shows the natural chain unless it says otherwise.
UniProt Q9UNA4: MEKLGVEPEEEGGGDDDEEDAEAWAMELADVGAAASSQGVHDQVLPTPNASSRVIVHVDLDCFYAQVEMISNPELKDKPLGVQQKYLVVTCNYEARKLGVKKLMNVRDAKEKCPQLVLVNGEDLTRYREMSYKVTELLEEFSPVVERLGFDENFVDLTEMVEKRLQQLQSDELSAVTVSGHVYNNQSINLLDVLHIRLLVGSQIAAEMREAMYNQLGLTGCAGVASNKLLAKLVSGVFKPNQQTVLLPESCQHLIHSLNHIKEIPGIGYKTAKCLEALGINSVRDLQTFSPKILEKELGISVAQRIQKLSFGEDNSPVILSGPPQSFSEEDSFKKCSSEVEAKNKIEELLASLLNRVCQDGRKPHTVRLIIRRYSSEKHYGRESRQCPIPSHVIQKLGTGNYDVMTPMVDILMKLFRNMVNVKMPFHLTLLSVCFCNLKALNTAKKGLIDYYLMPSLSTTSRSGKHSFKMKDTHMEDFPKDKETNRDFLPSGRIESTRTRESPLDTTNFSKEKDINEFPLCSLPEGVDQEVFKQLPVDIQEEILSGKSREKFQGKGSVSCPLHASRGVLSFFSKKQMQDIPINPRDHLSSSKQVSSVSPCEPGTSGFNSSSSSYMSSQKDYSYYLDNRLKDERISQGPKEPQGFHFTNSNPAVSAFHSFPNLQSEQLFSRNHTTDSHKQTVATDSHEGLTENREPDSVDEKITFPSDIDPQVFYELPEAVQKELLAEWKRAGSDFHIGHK

Each compound was assayed against DNA polymerase iota (Homo sapiens) (UniProt Q9UNA4) (assay: qHTS for Inhibitors of Polymerase Iota). Conditions: Pol iota fluorescent replication assay, 10 min; series mostly up to 115 µM.
Method in brief: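 Fluorescent replication assay read twice, at 0 min and 10 min after adding 50 nM (final) substrate. Enzyme (10 nM) and compounds were first incubated 15 min at room temperature; enzyme-free buffer wells were negative controls.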
Potency is read from the fitted curve at half-maximal effect.

Potency, inactive:
O=C(NNc1ccccc1[N+](=O)[O-])Nc1ccc(Cl)c(Cl)c1
CC(C)CCN1CCN(Cc2ccc3nsnc3c2)CC1CCO (stereo not given)
Cc1csc(NC(=O)CN(C)S(=O)(=O)c2cccc3cccnc23)n1
Cc1ccc(CCNc2nc3ccccc3c3nc(-c4ccccc4)nn23)cc1
CCOC(=O)c1ccc(N2C(=O)c3[nH]nc(-c4ccc(OC)cc4)c3C2c2ccc(C)cc2)cc1 (stereo not given)
COc1ccc(CN2C(=O)N(c3ccc(F)cc3)C(=O)C2CC(=O)Nc2ccccc2)cc1 (stereo not given)
CCn1c(=O)cc(OCC(=O)NCc2ccc(F)cc2Cl)c2ccccc21
Cc1ccc(C)c(NC(=O)CSc2nncn3c2cc2sccc23)c1
COc1ccc(-c2noc(-c3ccc(NC4CCCCC4)c([N+](=O)[O-])c3)n2)cc1OC
O=C(NCCc1c[nH]c2ccccc12)Nc1ccccc1C(F)(F)F
CC(C)c1ccc(NC(=O)CSc2nnc(-c3ccccc3)n2C)cc1
Cc1ccc(S(=O)(=O)NCCSCc2ccco2)cc1
O=C(O)COc1ccccc1C=NNC(=O)c1ccc(NS(=O)(=O)c2cccs2)cc1
Cc1ccc(C)c(CN2C(=O)c3ccccc3Sc3ccc(C(=O)NC4CCCC4)cc32)c1
COc1ccc(C(=O)Nc2nc(N)n(-c3ccccc3)n2)cc1

Potency, active:
O=c1oc(-c2ccc(O)c(O)c2)cc2cc(O)cc(O)c12 28.2 µM
O=[N+]([O-])c1cc(/C=N/n2c(-c3ccncc3)n[nH]c2=S)ccc1Cl 12.6 µM
O=C(COC(=O)c1ccccc1NCCO)Nc1cccc(S(=O)(=O)NC2=NCCCCC2)c1 39.8 µM
CCOC(=O)C1=C(Cc2ccc(Cl)cc2)C(=O)c2ccccc2C1=O 14.1 µM
Cc1cc(NC(=O)CSc2sc3c(O)cc(=O)[nH]c3c2C#N)ccc1Br 56.2 µM

Potency, inconclusive:
CCCc1cc(=O)[nH]c(SCC(=O)NC)n1 89.1 µM [inhibitor, single point]
CCCc1ccc(OCc2ccc(C(=O)N/N=C/c3cccnc3)o2)cc1 79.4 µM [inhibitor, partial curve]
O=C(Nc1ccc(-c2nc3ncccc3o2)cc1)c1ccc([N+](=O)[O-])o1 20 µM [inhibitor, full curve]
Cc1cccc(N2CCN(S(=O)(=O)c3c(C)[nH]c(=O)[nH]c3=O)CC2)c1C 22.4 µM [inhibitor, partial curve, poor fit]
O=C(Nc1ccc(Cl)cc1)Nc1csc([N+](=O)[O-])c1 22.4 µM [inhibitor, partial curve, poor fit]
CCCC(O)(c1ccccc1)C(CN1CCOCC1)c1ccccc1 (stereo not given) 25.1 µM [inhibitor, full curve, poor fit]
CC(C)CCCN1C(N(C)C)=NC[C@@H]1Cc1ccccc1 10 µM [inhibitor, partial curve, poor fit]
N#CC1=C2SCN(Cc3ccco3)CN2C(=O)CC1c1c(F)cccc1Cl (stereo not given) 12.6 µM [inhibitor, partial curve, poor fit]
CCOC(=O)N1CCN(C(=O)CN(c2cc(Cl)ccc2OC)S(=O)(=O)c2ccccc2)CC1 35.5 µM [inhibitor, single point]
CCOc1cc(NC(=O)c2ccccc2OC)c(OCC)cc1NC(=O)c1ccccc1 100 µM [inhibitor, single point]
NS(=O)(=O)c1ccc(CNS(=O)(=O)c2ccc3ccccc3c2)cc1 79.4 µM [inhibitor, partial curve]
O=C(CSc1nc2ccccc2[nH]1)c1ccc2c(c1)OCO2 39.8 µM [inhibitor, single point]
COc1ccc(N2CC(C(=O)Nc3nnc(SCC(=O)NC4CCCC4)s3)CC2=O)cc1 (stereo not given) 20 µM [inhibitor, partial curve]
COC(=O)c1cc(NC(=O)Cn2ncc3c2-c2ccccc2OC3)cc(C(=O)OC)c1 7.94 µM [inhibitor, partial curve]
Cc1cc(C(=O)Nc2sccc2C#N)c2ccccc2n1 28.2 µM [inhibitor, single point]
CCC(C)C(NC(=O)c1ccccc1NC(=O)c1ccco1)C(=O)NNC(=O)c1ccc(OC)cc1 (stereo not given) 63.1 µM [inhibitor, partial curve, poor fit]
COCc1ccc(-c2c(-c3ccccc3OC)sc3cc4c(cc23)OCO4)cc1 56.2 µM [inhibitor, partial curve, poor fit]
O=C(NC1=NCCS1)c1cc(-c2ccc(F)cc2)nc2ccccc12 89.1 µM [inhibitor, single point]
Cc1c(O)ccc2c(CC(=O)N[C@@H](Cc3ccccc3)C(=O)O)cc(=O)oc12 63.1 µM [inhibitor, single point]
Cc1cc(C)c(C#N)c(SCC(=O)Nc2ccccc2C#N)n1 89.1 µM [inhibitor, single point]
O=C(N/N=C/c1ccncc1)c1cc([N+](=O)[O-])cc([N+](=O)[O-])c1O 14.1 µM [inhibitor, partial curve, poor fit]
COC(=O)C(=C/C(C)=C/c1cccnc1)C(=O)OC 31.6 µM [inhibitor, single point]
COc1ccc(C(=O)NCc2nnc(SCC(=O)NCc3ccco3)o2)cc1OC 8.91 µM [inhibitor, full curve, poor fit]
CSc1ccc(S(=O)(=O)N2CCC(C(=O)Nc3cccnc3)CC2)cc1 89.1 µM [inhibitor, partial curve, poor fit]
Cc1ccc(S(=O)(=O)Nc2csc(C)c2C(=O)O)cc1 14.1 µM [inhibitor, full curve, poor fit]

Some of these compounds in order of SMILES length, descending:
Potency, inconclusive:
CCC(C)C(NC(=O)c1ccccc1NC(=O)c1ccco1)C(=O)NNC(=O)c1ccc(OC)cc1 (stereo not given) 63.1 µM [inhibitor, partial curve, poor fit]
CCOC(=O)N1CCN(C(=O)CN(c2cc(Cl)ccc2OC)S(=O)(=O)c2ccccc2)CC1 35.5 µM [inhibitor, single point]
COc1ccc(N2CC(C(=O)Nc3nnc(SCC(=O)NC4CCCC4)s3)CC2=O)cc1 (stereo not given) 20 µM [inhibitor, partial curve]
N#CC1=C2SCN(Cc3ccco3)CN2C(=O)CC1c1c(F)cccc1Cl (stereo not given) 12.6 µM [inhibitor, partial curve, poor fit]
O=C(Nc1ccc(Cl)cc1)Nc1csc([N+](=O)[O-])c1 22.4 µM [inhibitor, partial curve, poor fit]
Cc1ccc(S(=O)(=O)Nc2csc(C)c2C(=O)O)cc1 14.1 µM [inhibitor, full curve, poor fit]
CCCc1cc(=O)[nH]c(SCC(=O)NC)n1 89.1 µM [inhibitor, single point]
